## Primary screen of a compound library

A: 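Whole-cell assay for inhibitors of Mycobacterium tuberculosis growth, labelled Cornell in the record; the read-out is not stated. The concentration is filed as 10 mM, unlikely as a test dose, so the dose is not known. Higher means stronger inhibition (inferred from two other growth screens of the library). Size under these conditions: about 53,000 compounds, about 900 of them at 50% or above in at least one test.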
B: 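Assay on Mycobacterium tuberculosis, filed only as a heat shock assay from Cornell; the read-out is not stated. The concentration is filed as 10 mM, unlikely as a test dose, so the dose is not known. Higher reads as stronger inhibition (inferred: compounds with an IC50 in retests scored well above the rest). Size under these conditions: about 69,000 compounds, about 930 of them at 50% or above in at least one test.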

Each number is a percent effect as filed.
The controls that fix the scale are not given in the record; negative values are as filed.
Compounds were drawn at random from those tested, without regard to their results.
A dash means the value is not listed here; it may have been measured.

compound,A,B
COC(=O)Cn1c(=O)nc2n1C(=O)N(c1ccc(F)cc1)C2,8.177,5.229
O=C(O)C(F)(F)F.OCCN1CCC(F)(F)C2(CCN(c3cnccn3)C2)C1 (stereo not drawn),4.366,3.233
O=C(COCc1ccccc1)N1CCCn2cncc2C1,-25.06,27.49
O=C(O)C(F)(F)F.O=C(O)C(F)(F)F.O=C(O)C(F)(F)F.[H][C@@]12COC[C@H](N3CCN(C)CC3)[C@]1([H])CN(Cc1ccc(OC)cc1)C2,-2.444,-2.705
Cc1cc(CN(C)C(=O)CN2CCCCCC2=O)no1,6.807,1.181
O=C(NCC1CC1)c1ccc(NC(=O)c2ccco2)cc1,-35.43,6.457
CC(=O)N1CCCN(C(=O)NCCc2cc(Cl)cc(Cl)c2)CC1,-,-4.443
CN(C)c1ccc(CNC(=O)Nc2ccc(S(=O)(=O)C(F)F)cc2)cc1,37.4,0.7262
CCNc1cc2c(nn1)CCN(C(=O)CC1CCCC1)C2,-,-1.577
Cc1ccc(CNC(C)c2ccc(OCC(=O)NC3CC3)cc2)o1 (stereo not drawn),-7.493,-9.507
Cc1nc(-c2c(C)noc2C)cc(C2CCN(CC(=O)N(C)C)CC2)n1,6.258,5.325
Cn1ccnc1SCc1nc(C(C)(C)NC(=O)OC(C)(C)C)no1,-5.426,-24.43
Cl.Cn1ccnc1CNC(=O)c1cnc(C2CCNCC2)cn1,-21.7,-24.11
CN(C(=O)CN1CCOC(Cn2cccn2)C1)c1nccs1 (stereo not drawn),7.249,14.66
O=C(CN1CCN(c2nccs2)CC1)Nc1cccnc1,18.84,-10.64
COc1ccc(C)cc1CN1CCOC(Cn2nc(C)nc2C)C1 (stereo not drawn),9.15,-12.7
CN1C(=O)CC(c2ccccc2)C12CCN(CC1CC1)CC2.O=C(O)C(F)(F)F (stereo not drawn),20.36,1.497
CC(=O)N1CCN(c2ccccc2CNc2ccc3[nH]ncc3c2)CC1,-,7.046
COCCNS(=O)(=O)c1cccc(CSC)c1,-38.46,11.9
O=C(c1ccco1)N1CCc2onc(CN3CCCC3)c2C1,-36.99,-5.109
N#Cc1ncn(CC(=O)Nc2cc(Cl)ccc2F)n1,104.7,-23.45
NC(=O)C1CCN(C(=O)NC2CCN(CC3CCCC3)C2)CC1 (stereo not drawn),21.86,16.25
Cc1ccc(C2COCCN2C(=O)c2cccc(N(C)C)c2)o1 (stereo not drawn),9.273,-13.86
O=C(O)C(F)(F)F.[H][C@@]12CCN(c3cccnc3)C[C@]1([H])CN(C(=O)c1ccccc1C)C2,-9.447,-1.895
Cc1nc(NC(=O)NC2CC(=O)N(C)C2)nn1C(C)C (stereo not drawn),-,-1.107
CC(=O)N1N=C(c2ccncc2)OC1C(=O)N(C)CCc1ccccc1 (stereo not drawn),2.953,106
Cn1cc(N2CCCC(Nc3ccc4c(c3)CCC(=O)N4)C2=O)cn1 (stereo not drawn),-23.03,18.07
Cc1cc(C(=O)N2CCCC2)ccc1NCCOCC(F)(F)F,-,-12.65
CCN1CC(C(=O)NCCn2cccc2)CC1=O (stereo not drawn),5.79,9.979
Cc1cccc(CNC2CCN(CCc3ccncc3)CC2)c1C,-,-24.07
CN(C)C(=O)c1cnc2n1CCN(Cc1ccsc1)C2.O=C(O)C(F)(F)F,1.254,-7.356
Cc1ccc(CN2CCC3(CC2)CCN(C(=O)c2cccnc2)C3)o1.O=C(O)C(F)(F)F,-1.013,41.04
Cc1nn(C)c(C)c1NC(=O)c1cccc(CN2CCS(=O)(=O)CC2)c1,13.26,18.77
COc1ncnc(N)c1CNCC(C)SC (stereo not drawn),-8.193,8.605
COc1ccc(S(=O)(=O)N2CCC(OCc3ccccn3)C2)cc1Br (stereo not drawn),20.54,-0.6096
Cc1nc(CNC(=O)c2cc(COc3ccccc3F)[nH]n2)n[nH]1,-,-9.659
Cc1cnn(CCCNC(=O)N2CCCCC(N3CCCC3)C2)c1 (stereo not drawn),-,37.75
O=C(O)C(F)(F)F.O=S(=O)(NCC1OCCc2cn(CC3CCOCC3)nc21)C1CC1 (stereo not drawn),3.048,-30.09
Cc1nn(C)c(C)c1C1CCCN1C(=O)c1nccnc1N (stereo not drawn),-25.35,-1.244
O=C(N[C@H]1COC[C@@H]1N1CCCC1)c1csc(-c2cccs2)n1,17.68,34.04
COc1ccc(F)cc1NC(=O)NCC1(CN2CCOCC2)CC1,-3.432,2.349
O=C(Cn1ccc2sccc2c1=O)NCc1ccc2c(c1)OCO2,13.81,0.08488
COCCN1CCC(CN(CC2CCCO2)C(=O)CNC(C)=O)CC1 (stereo not drawn),28.87,4.443
O=c1[nH]c2cc(S(=O)(=O)N3CCC(c4ccsc4)CC3)ccc2o1,40.7,6.483
Cc1cc(CS(=O)(=O)N(C)C(C)c2ccc(F)cc2)on1 (stereo not drawn),3.671,-1.14
COc1ccc(Cl)cc1CC(=O)N1CCN(CC(C)O)CC1 (stereo not drawn),-,-30.11
CN1CCCN(c2ccc(F)cc2CNC(=O)c2ccsc2)CC1,-23.62,-0.5579
Cl.[H][C@@]12NCCCCC[C@@]1([H])N(S(=O)(=O)N1CCCC1)C[C@H]2c1cccc(F)c1,-14.74,-11.31
Nc1nc2c(c(NC3CCCC3)n1)CCN(C(=O)C1CCOC1)CC2 (stereo not drawn),-17.12,-1.665
O=C(O)C(F)(F)F.[H][C@@]12CN(CC)C[C@]1([H])[C@H](OC)CCN2S(=O)(=O)c1ccccc1,35.25,4.433
CS(=O)(=O)c1snnc1C1CCN(Cc2ccc3nccnc3c2)CC1,-11.54,-15.44
O=C1CCCN1C1CCCN(CCn2cc(Cl)cn2)C1 (stereo not drawn),0.7326,-32.56
O=C(Cn1nc2ccccc2n1)N1CCCn2cncc2C1,-54.95,13.5
Cc1cc(C)n(-c2ccc(CNCc3ccc(C)o3)cn2)n1,-,13.63
CC(C)Oc1ccccc1C(=O)NCCc1nncn1C,16.18,0.849
O=C(O)C(F)(F)F.[H][C@@]12CCN(c3ccc(C)nn3)C[C@]1(C(=O)NC(C)C)CCO2,13.31,-0.1082
COc1ccccc1C(=O)N(C)C1CCN(c2ccccn2)CC1,-,-0.1604
FC(F)(F)c1cc(C2CCNCC2)nc(-c2ccsc2)n1,5.948,-10.66
Cc1csc(C2CCCCN2C(=O)CN(C)Cc2ccccc2)n1 (stereo not drawn),-,1.027
NC1(CN2CCCCC2)CCCCC1,-23.07,16.5
COCCN(C)C1COC2(CCN(Cc3cccc(F)c3)CC2)C1.O=C(O)C(F)(F)F.O=C(O)C(F)(F)F (stereo not drawn),-25.27,-38.12
Cc1nn(C)cc1S(=O)(=O)N(C)[C@@H]1CCC[C@@H](n2ccnc2)[C@@H]1O,-32.17,-10.54
CCOc1ccc(C(=O)N2CCN(c3nccn3C)CC2)cc1.Cl,-,-17.36
CC(NC(=O)NCCn1ccnc1)c1nncn1C (stereo not drawn),-24.13,-28.44
COc1ccc(CNC(=O)C2(C#N)CCCC2)cc1,-0.7967,21
O=S(=O)(NCCN1CC=CC1)c1ccc(Cl)cc1,9.544,16.92
[H][C@@]12CCN(S(=O)(=O)CC)C[C@]1(C(=O)NC)CCO2,23.34,-1.036
Cc1ccccc1C1(C(=O)NCCN2CCOCC2)CCOCC1,-,3.565
O=C(Nc1ccc(-c2nc3c([nH]2)CCNC3)cc1)N1CCCC1,30.02,2.365
CN(C(=O)Cn1nc(-c2ccc(F)cc2)oc1=O)c1ccccc1,14.64,-18.36
O=C(O)C(F)(F)F.[H][C@@]12COC[C@]1(COCc1cccnc1)CN(C(=O)Cc1ccsc1)C2,20.53,-8.732
NCC(=O)N1CCC(c2cccc(Oc3ccccc3)n2)CC1,16.54,-4.134
CCn1c(CNCC2CCCN2c2cccnn2)nc2ccccc21 (stereo not drawn),-,44.13
CN1C(=O)CC(c2cnn(C)c2)C12CCN(C(=O)c1cscn1)CC2 (stereo not drawn),-2.413,-13.91
Cc1nc(NC(=O)C2(C)CN(C)CCO2)sc1C.Cl (stereo not drawn),-24.76,-1.317
Cc1cc(F)ccc1S(=O)(=O)N1C[C@@H](C)[C@@](C)(O)C1,1.159,-2.83
CCn1nc(C)c2nc(C(C)C)nc(NCC(C)O)c21 (stereo not drawn),-,-5.071
Cc1nc(NC(=O)C(C)S(C)(=O)=O)sc1Cc1ccccc1F (stereo not drawn),10.3,8.55
Cn1ccnc1-c1nc(NC2CCCC2)ncc1-c1cccc(F)c1,22.13,85.28
c1cnn(Cc2nnc3n2CCCN(c2nccs2)C3)c1,-21.31,-28.42

Some entries from above, unchanged:

compound,A,B
CCn1nc(C)c2nc(C(C)C)nc(NCC(C)O)c21 (stereo not drawn),-,-5.071
CN1CCCN(c2ccc(F)cc2CNC(=O)c2ccsc2)CC1,-23.62,-0.5579
CN1C(=O)CC(c2ccccc2)C12CCN(CC1CC1)CC2.O=C(O)C(F)(F)F (stereo not drawn),20.36,1.497
O=C(N[C@H]1COC[C@@H]1N1CCCC1)c1csc(-c2cccs2)n1,17.68,34.04
O=C(Cn1ccc2sccc2c1=O)NCc1ccc2c(c1)OCO2,13.81,0.08488
O=C(O)C(F)(F)F.O=S(=O)(NCC1OCCc2cn(CC3CCOCC3)nc21)C1CC1 (stereo not drawn),3.048,-30.09
Cc1cnn(CCCNC(=O)N2CCCCC(N3CCCC3)C2)c1 (stereo not drawn),-,37.75
Cc1ccc(CN2CCC3(CC2)CCN(C(=O)c2cccnc2)C3)o1.O=C(O)C(F)(F)F,-1.013,41.04
Cc1nn(C)c(C)c1NC(=O)c1cccc(CN2CCS(=O)(=O)CC2)c1,13.26,18.77

Source: ChEMBL document CHEMBL3988442, “University of Dundee, Small-Polar-MMV Screening Library” (2021).